These are yes or no findings as the source states them, for the method shown. Binding seen in cells or lysates may run through a third protein.

For this assay, the target named is p65, in 293T cells, Q04206. In words: co-IP; exogenous WHSC1 in 293T cells; immunoblot of 293T cell immunoprecipitates. The note with it: remark: other sources report otherwise.

B1: Wolf-Hirschhorn syndrome candidate 1 (WHSC1), exogenous, O96028 1-1365 (protein)
chain: MEFSIKQSPLSVQSVVKCIKMKQAPEILGSANGKTPSCEVNRECSVFLSKAQLSSSLQEGVMQKFNGHDALPFIPADKLKDLTSRVFNGEPGAHDAKLRFESQEMKGIGTPPNTTPIKNGSPEIKLKITKTYMNGKPLFESSICGDSAADVSQSEENGQKPENKARRNRKRSIKYDSLLEQGLVEAALVSKISSPSDKKIPAKKESCPNTGRDKDHLLKYNVGDLVWSKVSGYPWWPCMVSADPLLHSYTKLKGQKKSARQYHVQFFGDAPERAWIFEKSLVAFEGEGQFEKLCQESAKQAPTKAEKIKLLKPISGKLRAQWEMGIVQAEEAASMSVEERKAKFTFLYVGDQLHLNPQVAKEAGIAAESLGEMAESSGVSEEAAENPKSVREECIPMKRRRRAKLCSSAETLESHPDIGKSTPQKTAEADPRRGVGSPPGRKKTTVSMPRSRKGDAASQFLVFCQKHRDEVVAEHPDASGEEIEELLRSQWSLLSEKQRARYNTKFALVAPVQAEEDSGNVNGKKRNHTKRIQDPTEDAEAEDTPRKRLRTDKHSLRKRDTITDKTARTSSYKAMEAASSLKSQAATKNLSDACKPLKKRNRASTAASSALGFSKSSSPSASLTENEVSDSPGDEPSESPYESADETQTEVSVSSKKSERGVTAKKEYVCQLCEKPGSLLLCEGPCCGAFHLACLGLSRRPEGRFTCSECASGIHSCFVCKESKTDVKRCVVTQCGKFYHEACVKKYPLTVFESRGFRCPLHSCVSCHASNPSNPRPSKGKMMRCVRCPVAYHSGDACLAAGCSVIASNSIICTAHFTARKGKRHHAHVNVSWCFVCSKGGSLLCCESCPAAFHPDCLNIEMPDGSWFCNDCRAGKKLHFQDIIWVKLGNYRWWPAEVCHPKNVPPNIQKMKHEIGEFPVFFFGSKDYYWTHQARVFPYMEGDRGSRYQGVRGIGRVFKNALQEAEARFREIKLQREARETQESERKPPPYKHIKVNKPYGKVQIYTADISEIPKCNCKPTDENPCGFDSECLNRMLMFECHPQVCPAGEFCQNQCFTKRQYPETKIIKTDGKGWGLVAKRDIRKGEFVNEYVGELIDEEECMARIKHAHENDITHFYMLTIDKDRIIDAGPKGNYSRFMNHSCQPNCETLKWTVNGDTRVGLFAVCDIPAGTELTFNYNLDCLGNEKTVCRCGASNCSGFLGDRPKTSTTLSSEEKGKKTKKKTRRRRAKGEGKRQSEDECFRCGDGGQLVLCDRKFCTKAYHLSCLGLGKRPFGKWECPWHHCDVCGKPSTSFCHLCPNSFCKEHQDGTAFSCTPDGRSYCCEHDLGAASVRSTKTEKPPPEPGKPKGKRRRRRGWRRVTEGK
For the molecule B1, the binding result is listed as “no binding”.

(Values after PMC9012282.)
